From the supplement of paper PMC12067093, “Discovery and optimisation of a covalent ligand for TRIM25 and its application to targeted protein ubiquitination” (Chemical Science, 2025)
The list shows a part of the results.

Amino acid sequences for entries named in this document (tags omitted). A change or cut given only in a name is not applied to a line headed by its entry.
UniProt Q8N806: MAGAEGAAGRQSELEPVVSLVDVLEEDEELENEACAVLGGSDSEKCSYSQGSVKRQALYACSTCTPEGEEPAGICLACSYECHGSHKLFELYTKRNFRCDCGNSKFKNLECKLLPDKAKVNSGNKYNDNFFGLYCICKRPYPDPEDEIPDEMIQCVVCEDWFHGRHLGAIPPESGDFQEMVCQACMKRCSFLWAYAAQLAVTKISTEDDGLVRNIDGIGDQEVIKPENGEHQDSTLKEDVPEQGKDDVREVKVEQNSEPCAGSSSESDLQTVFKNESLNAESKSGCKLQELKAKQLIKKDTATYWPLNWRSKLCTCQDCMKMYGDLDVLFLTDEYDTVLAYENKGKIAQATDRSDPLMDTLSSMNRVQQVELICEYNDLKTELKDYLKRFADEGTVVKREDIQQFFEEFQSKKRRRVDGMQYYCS
UniProt Q9HAU5: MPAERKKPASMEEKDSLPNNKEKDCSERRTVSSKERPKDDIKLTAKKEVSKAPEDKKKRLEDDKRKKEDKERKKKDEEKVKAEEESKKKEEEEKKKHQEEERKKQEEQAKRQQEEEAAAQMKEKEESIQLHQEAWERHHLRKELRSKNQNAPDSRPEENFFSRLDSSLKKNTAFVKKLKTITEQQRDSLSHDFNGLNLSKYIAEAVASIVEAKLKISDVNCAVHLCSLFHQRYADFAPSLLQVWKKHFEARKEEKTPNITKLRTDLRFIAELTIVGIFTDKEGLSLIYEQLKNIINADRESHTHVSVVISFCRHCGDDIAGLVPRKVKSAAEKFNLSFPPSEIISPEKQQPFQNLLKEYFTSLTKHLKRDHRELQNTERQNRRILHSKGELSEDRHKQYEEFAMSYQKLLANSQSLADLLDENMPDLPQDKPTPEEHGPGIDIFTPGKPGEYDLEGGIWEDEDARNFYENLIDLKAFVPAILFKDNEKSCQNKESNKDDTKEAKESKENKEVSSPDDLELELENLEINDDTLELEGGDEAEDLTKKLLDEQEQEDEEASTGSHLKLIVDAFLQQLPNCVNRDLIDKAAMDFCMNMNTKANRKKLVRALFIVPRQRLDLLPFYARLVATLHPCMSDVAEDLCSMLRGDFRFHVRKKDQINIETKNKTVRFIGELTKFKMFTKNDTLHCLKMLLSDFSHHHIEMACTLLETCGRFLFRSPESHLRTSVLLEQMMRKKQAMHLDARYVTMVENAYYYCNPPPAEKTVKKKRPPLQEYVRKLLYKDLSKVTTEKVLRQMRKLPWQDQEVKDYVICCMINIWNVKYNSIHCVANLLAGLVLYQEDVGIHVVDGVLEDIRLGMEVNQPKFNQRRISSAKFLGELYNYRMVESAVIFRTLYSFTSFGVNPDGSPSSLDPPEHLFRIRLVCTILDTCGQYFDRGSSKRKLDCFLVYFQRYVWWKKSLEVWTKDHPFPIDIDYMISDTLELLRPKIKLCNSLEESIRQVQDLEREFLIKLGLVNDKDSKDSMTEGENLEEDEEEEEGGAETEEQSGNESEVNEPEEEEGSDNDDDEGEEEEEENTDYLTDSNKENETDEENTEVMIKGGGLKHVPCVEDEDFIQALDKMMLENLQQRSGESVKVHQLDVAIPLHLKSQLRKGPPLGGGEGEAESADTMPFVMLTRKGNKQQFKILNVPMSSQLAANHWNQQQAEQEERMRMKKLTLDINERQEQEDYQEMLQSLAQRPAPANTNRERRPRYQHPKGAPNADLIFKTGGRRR
UniProt Q9H3U1: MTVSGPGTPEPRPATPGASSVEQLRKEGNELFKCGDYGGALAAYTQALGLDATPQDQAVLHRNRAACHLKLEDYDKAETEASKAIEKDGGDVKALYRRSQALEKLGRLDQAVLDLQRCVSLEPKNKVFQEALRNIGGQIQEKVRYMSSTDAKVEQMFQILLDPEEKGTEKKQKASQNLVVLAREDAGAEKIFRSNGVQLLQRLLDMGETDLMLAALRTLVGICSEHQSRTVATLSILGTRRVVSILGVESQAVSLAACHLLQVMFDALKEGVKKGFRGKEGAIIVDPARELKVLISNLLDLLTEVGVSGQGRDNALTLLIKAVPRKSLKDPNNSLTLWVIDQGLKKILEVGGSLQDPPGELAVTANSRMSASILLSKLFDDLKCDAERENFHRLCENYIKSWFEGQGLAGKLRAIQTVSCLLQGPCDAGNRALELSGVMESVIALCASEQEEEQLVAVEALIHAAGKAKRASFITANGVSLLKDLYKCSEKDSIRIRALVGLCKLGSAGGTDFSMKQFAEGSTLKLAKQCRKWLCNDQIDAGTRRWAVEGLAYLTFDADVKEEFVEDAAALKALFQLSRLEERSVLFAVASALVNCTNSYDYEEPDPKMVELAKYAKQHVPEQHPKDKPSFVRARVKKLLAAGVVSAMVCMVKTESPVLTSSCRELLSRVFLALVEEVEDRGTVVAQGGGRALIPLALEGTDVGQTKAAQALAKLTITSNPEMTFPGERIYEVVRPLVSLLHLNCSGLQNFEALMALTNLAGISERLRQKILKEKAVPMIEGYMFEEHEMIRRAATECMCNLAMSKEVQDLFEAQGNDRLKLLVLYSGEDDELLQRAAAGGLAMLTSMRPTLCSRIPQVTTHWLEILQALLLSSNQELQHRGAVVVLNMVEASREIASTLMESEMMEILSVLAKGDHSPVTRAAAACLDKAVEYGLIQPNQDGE
UniProt Q96K76: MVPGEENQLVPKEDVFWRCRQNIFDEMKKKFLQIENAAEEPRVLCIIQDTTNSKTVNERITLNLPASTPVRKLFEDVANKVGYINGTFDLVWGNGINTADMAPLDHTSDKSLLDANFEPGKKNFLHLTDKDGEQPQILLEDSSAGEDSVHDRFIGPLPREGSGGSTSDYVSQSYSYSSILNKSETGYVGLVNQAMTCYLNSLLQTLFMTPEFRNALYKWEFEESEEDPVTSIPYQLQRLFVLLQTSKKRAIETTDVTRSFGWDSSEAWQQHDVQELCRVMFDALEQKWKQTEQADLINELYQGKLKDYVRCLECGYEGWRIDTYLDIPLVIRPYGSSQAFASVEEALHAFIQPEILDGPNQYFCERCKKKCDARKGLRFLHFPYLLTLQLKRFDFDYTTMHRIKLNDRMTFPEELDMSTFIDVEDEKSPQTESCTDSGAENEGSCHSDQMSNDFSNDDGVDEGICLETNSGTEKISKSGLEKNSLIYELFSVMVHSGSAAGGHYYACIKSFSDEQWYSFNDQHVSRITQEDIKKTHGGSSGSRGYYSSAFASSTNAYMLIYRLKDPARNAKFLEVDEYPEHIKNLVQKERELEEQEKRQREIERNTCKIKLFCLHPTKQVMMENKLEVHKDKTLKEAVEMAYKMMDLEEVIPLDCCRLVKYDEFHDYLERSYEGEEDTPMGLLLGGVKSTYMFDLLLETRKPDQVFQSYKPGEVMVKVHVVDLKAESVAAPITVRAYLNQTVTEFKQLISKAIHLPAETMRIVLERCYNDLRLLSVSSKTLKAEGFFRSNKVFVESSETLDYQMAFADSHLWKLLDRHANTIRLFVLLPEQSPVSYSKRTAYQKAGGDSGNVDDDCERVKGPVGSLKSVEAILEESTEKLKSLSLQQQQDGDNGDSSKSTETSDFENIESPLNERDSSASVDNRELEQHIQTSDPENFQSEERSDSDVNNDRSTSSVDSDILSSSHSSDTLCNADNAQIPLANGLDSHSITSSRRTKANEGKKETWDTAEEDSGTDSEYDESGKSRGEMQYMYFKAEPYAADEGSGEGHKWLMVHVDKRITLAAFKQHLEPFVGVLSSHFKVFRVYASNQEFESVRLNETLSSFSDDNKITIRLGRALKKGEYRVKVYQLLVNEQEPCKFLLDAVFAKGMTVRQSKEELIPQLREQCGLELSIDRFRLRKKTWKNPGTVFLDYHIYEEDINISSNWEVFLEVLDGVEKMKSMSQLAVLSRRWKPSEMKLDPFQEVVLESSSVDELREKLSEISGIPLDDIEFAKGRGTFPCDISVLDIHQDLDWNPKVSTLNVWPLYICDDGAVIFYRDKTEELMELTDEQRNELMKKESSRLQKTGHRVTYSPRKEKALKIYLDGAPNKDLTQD
UniProt Q92900: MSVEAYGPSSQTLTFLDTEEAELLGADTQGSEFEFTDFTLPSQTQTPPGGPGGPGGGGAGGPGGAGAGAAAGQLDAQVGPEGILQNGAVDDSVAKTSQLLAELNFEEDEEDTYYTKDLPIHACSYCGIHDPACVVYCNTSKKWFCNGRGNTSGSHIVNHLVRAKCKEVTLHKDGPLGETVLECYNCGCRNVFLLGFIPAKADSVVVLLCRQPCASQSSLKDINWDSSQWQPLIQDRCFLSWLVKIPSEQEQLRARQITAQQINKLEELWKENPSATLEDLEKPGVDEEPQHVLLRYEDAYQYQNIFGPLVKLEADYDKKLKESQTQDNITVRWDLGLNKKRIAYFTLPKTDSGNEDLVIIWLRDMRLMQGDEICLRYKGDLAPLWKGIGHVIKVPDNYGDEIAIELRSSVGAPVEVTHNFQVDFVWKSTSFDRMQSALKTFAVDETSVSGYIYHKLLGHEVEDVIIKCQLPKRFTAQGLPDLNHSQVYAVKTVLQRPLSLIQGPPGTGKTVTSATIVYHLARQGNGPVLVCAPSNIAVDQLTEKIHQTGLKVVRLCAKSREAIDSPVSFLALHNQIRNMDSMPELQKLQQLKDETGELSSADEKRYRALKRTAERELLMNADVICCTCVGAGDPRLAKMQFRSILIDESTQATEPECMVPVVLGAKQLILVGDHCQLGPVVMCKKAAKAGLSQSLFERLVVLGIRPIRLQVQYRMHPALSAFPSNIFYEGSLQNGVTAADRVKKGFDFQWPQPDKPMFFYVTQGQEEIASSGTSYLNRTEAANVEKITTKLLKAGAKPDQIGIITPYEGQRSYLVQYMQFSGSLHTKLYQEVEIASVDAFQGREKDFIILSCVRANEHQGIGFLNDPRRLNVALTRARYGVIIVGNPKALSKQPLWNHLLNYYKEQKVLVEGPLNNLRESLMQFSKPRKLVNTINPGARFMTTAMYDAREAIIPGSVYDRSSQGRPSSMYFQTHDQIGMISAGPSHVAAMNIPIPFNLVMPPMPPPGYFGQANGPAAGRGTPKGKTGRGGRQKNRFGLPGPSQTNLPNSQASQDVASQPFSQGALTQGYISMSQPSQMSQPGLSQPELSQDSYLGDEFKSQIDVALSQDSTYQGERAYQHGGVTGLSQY
UniProt Q92890: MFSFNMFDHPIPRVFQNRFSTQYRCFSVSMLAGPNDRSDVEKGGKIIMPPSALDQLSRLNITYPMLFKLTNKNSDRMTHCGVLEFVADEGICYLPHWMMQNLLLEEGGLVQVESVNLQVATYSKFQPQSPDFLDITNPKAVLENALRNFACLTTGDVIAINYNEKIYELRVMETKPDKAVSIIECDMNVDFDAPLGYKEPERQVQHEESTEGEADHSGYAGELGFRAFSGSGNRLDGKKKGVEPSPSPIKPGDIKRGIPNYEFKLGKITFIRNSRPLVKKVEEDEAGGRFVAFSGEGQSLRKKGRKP
UniProt Q70J99: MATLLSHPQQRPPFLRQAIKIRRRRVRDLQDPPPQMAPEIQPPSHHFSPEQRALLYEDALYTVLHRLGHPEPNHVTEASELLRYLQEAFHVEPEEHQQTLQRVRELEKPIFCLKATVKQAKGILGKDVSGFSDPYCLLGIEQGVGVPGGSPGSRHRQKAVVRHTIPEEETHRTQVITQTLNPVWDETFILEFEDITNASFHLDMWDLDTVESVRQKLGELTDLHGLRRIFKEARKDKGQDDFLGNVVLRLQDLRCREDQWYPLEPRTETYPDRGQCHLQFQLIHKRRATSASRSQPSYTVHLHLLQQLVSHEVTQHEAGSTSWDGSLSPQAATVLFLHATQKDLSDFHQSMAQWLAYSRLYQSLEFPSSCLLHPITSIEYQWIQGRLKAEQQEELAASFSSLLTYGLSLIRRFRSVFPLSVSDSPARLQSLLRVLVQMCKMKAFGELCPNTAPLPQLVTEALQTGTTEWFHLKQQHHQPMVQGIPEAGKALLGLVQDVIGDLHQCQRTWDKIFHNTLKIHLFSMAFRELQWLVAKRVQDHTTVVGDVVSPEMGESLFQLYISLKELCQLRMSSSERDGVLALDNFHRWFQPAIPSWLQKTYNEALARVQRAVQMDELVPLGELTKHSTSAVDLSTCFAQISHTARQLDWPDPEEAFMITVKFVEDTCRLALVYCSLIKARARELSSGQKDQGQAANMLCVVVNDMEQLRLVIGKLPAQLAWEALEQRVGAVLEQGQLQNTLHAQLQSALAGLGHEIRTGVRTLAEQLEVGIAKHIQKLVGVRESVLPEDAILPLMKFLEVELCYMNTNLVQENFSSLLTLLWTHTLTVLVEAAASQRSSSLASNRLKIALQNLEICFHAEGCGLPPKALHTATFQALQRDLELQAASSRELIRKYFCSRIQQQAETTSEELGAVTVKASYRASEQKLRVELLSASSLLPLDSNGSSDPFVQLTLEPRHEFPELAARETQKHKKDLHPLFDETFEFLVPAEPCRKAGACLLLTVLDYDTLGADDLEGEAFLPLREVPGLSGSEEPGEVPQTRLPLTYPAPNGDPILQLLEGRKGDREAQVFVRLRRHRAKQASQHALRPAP

Compound: CC1Cc2ccccc2N1C(=O)C1CCCN(C1)C(=O)CCl (mixture of isomers) [TRIM25 ligand 11 (diastereomer mixture)]
Assay: probe-labelled cysteine peptide fold change vs DMSO (competition) (log2 fold change); higher = less target engagement (more negative = stronger competition)
Details: THP-1, incubation time: 4 h
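Further: competitive chemoproteomic profiling in live THP-1 cells with an iodoacetamide desthiobiotin (IA-DTB) probe, comparing probe-labelled peptide intensities in compound-treated cells against DMSO-treated controls.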

With “UBR7_Q8N806_260_VEQNSEPCAGSSSESDLQTVFK (UniProt Q8N806)” the “probe-labelled cysteine peptide fold change” value (10 µM) was -0.0933 and the “probe-labelled cysteine peptide fold change” value (50 µM) was -0.021.

In the case of “USP3_Q9Y6I4_362_NQENGPVCSLR (UniProt Q9Y6I4)”, the “probe-labelled cysteine peptide fold change” value (10 µM) is reported as 0.00442 and the “probe-labelled cysteine peptide fold change” value (50 µM) is reported as 0.0397.

“UPF2_Q9HAU5_226_ISDVNCAVHLCSLFHQR (UniProt Q9HAU5)” was tested, and the “probe-labelled cysteine peptide fold change” value (10 µM) was 0.32 and the “probe-labelled cysteine peptide fold change” value (50 µM) was -0.121.

For “UNC45A_Q9H3U1_384_CDAERENFHR (UniProt Q9H3U1)”, the “probe-labelled cysteine peptide fold change” value (10 µM) was -0.108 and the “probe-labelled cysteine peptide fold change” value (50 µM) was -0.102.

“UGDH_O60701_8+9+20_KICCIGAGYVGGPTCSVIAHMCPEIR (UniProt O60701)” was tested, and the “probe-labelled cysteine peptide fold change” value (10 µM) was -0.138 and the “probe-labelled cysteine peptide fold change” value (50 µM) was 0.304.

“UNC45A_Q9H3U1_650_LLAAGVVSAMVCMVK (UniProt Q9H3U1)” was tested, and the “probe-labelled cysteine peptide fold change” value (10 µM) was -0.155 and the “probe-labelled cysteine peptide fold change” value (50 µM) was 0.00824.

With “UCK2_Q9BZX2_241_RQTNGCLNGYTPSR (UniProt Q9BZX2)” the “probe-labelled cysteine peptide fold change” value (10 µM) was -0.0274 and the “probe-labelled cysteine peptide fold change” value (50 µM) was -0.121.

In the case of “USP25_Q9UHP3_336_DLHECLEAAMIEGEIESLHSENSGK (UniProt Q9UHP3)”, the “probe-labelled cysteine peptide fold change” value (10 µM) is reported as -0.0467 and the “probe-labelled cysteine peptide fold change” value (50 µM) is reported as 0.0315.

In the case of “USP7_Q93009_799_DLYHRVDVIFCDK (UniProt Q93009)”, the “probe-labelled cysteine peptide fold change” value (10 µM) is reported as -0.196 and the “probe-labelled cysteine peptide fold change” value (50 µM) is reported as -0.115.

For “UPF2_Q9HAU5_632+641_LVATLHPCMSDVAEDLCSMLR (UniProt Q9HAU5)”, the “probe-labelled cysteine peptide fold change” value (10 µM) was 0.24 and the “probe-labelled cysteine peptide fold change” value (50 µM) was 0.226.

“UPF2_Q9HAU5_578_LIVDAFLQQLPNCVNR (UniProt Q9HAU5)” was tested, and the “probe-labelled cysteine peptide fold change” value (10 µM) was -0.0302 and the “probe-labelled cysteine peptide fold change” value (50 µM) was -0.0787.

In the case of “USP4_Q13107_500_DRVMEVFLVPADPHCRPTQYR (UniProt Q13107)”, the “probe-labelled cysteine peptide fold change” value (10 µM) is reported as 0.0788 and the “probe-labelled cysteine peptide fold change” value (50 µM) is reported as 0.0752.

For “URB2_Q14146_205_AFGDVTAHLLQPCLVLR (UniProt Q14146)”, the “probe-labelled cysteine peptide fold change” value (10 µM) was 0.0286 and the “probe-labelled cysteine peptide fold change” value (50 µM) was -0.00423.

For “USO1_O60763_383_CAVLYCFQCFLYK (UniProt O60763)”, the “probe-labelled cysteine peptide fold change” value (10 µM) was 0.0534 and the “probe-labelled cysteine peptide fold change” value (50 µM) was 0.0182.

For “USP39_Q53GS9_139_LCSISLSHINAYACLVCGK (UniProt Q53GS9)”, the “probe-labelled cysteine peptide fold change” value (10 µM) was -0.0107 and the “probe-labelled cysteine peptide fold change” value (50 µM) was 0.0166.

For “USP47_Q96K76_656_MMDLEEVIPLDCCR (UniProt Q96K76)”, the “probe-labelled cysteine peptide fold change” value (10 µM) was -0.0834 and the “probe-labelled cysteine peptide fold change” value (50 µM) was -0.239.

For “UQCRH_P07919_53_LELCDER (UniProt P07919)”, the “probe-labelled cysteine peptide fold change” value (10 µM) was -0.254 and the “probe-labelled cysteine peptide fold change” value (50 µM) was -0.183.

In the case of “UPF2_Q9HAU5_315_HCGDDIAGLVPR (UniProt Q9HAU5)”, the “probe-labelled cysteine peptide fold change” value (10 µM) is reported as -0.00461 and the “probe-labelled cysteine peptide fold change” value (50 µM) is reported as 0.00542.

“UPF1_Q92900_675_QLILVGDHCQLGPVVMCK (UniProt Q92900)” was tested, and the “probe-labelled cysteine peptide fold change” value (10 µM) was -0.156 and the “probe-labelled cysteine peptide fold change” value (50 µM) was 0.0263.

“USP19_O94966_102_EGACEDPHDLLATPTPELLLDWR (UniProt O94966)” was tested, and the “probe-labelled cysteine peptide fold change” value (10 µM) was -0.0514 and the “probe-labelled cysteine peptide fold change” value (50 µM) was -0.155.

For “USP10_Q14694_94_TPSYSISSTLNPQAPEFILGCTASK (UniProt Q14694)”, the “probe-labelled cysteine peptide fold change” value (10 µM) was -0.275 and the “probe-labelled cysteine peptide fold change” value (50 µM) was -0.0814.

With “UFD1_Q92890_25_CFSVSMLAGPNDR (UniProt Q92890)” the “probe-labelled cysteine peptide fold change” value (10 µM) was -0.0179 and the “probe-labelled cysteine peptide fold change” value (50 µM) was 0.0238.

“UBR5_O95071_769_YCIFDLATGK (UniProt O95071)” was tested, and the “probe-labelled cysteine peptide fold change” value (10 µM) was 0.0824 and the “probe-labelled cysteine peptide fold change” value (50 µM) was 0.178.

“UGP2_Q16851_123_LNGGLGTSMGCK (UniProt Q16851)” was tested, and the “probe-labelled cysteine peptide fold change” value (10 µM) was -0.0886 and the “probe-labelled cysteine peptide fold change” value (50 µM) was -0.138.

“USP47_Q96K76_1309_VSTLNVWPLYICDDGAVIFYR (UniProt Q96K76)” was tested, and the “probe-labelled cysteine peptide fold change” value (10 µM) was -0.154 and the “probe-labelled cysteine peptide fold change” value (50 µM) was -0.305.

With “UPF1_Q92900_531_QGNGPVLVCAPSNIAVDQLTEK (UniProt Q92900)” the “probe-labelled cysteine peptide fold change” value (10 µM) was 0.285 and the “probe-labelled cysteine peptide fold change” value (50 µM) was 0.158.

For “USP19_O94966_1138_FCIGQK (UniProt O94966)”, the “probe-labelled cysteine peptide fold change” value (10 µM) was 0.0278 and the “probe-labelled cysteine peptide fold change” value (50 µM) was 0.0561.

In the case of “UCHL5_Q9Y5K5_88+100_QVINNACATQAIVSVLLNCTHQDVHLGETLSEFK (UniProt Q9Y5K5)”, the “probe-labelled cysteine peptide fold change” value (10 µM) is reported as 0.191 and the “probe-labelled cysteine peptide fold change” value (50 µM) is reported as 0.164.

With “UNC45A_Q9H3U1_503_ALVGLCK (UniProt Q9H3U1)” the “probe-labelled cysteine peptide fold change” value (10 µM) was 0.0324 and the “probe-labelled cysteine peptide fold change” value (50 µM) was 0.188.

In the case of “USP38_Q8NB14_38_VVESAEHWLDEAQCEAMFDLTTR (UniProt Q8NB14)”, the “probe-labelled cysteine peptide fold change” value (10 µM) is reported as 0.0837 and the “probe-labelled cysteine peptide fold change” value (50 µM) is reported as 0.224.

“UGGT1_Q9NYU2_159_TCESDTLEALLLTASERPKPLLFK (UniProt Q9NYU2)” was tested, and the “probe-labelled cysteine peptide fold change” value (10 µM) was -0.115 and the “probe-labelled cysteine peptide fold change” value (50 µM) was -0.0147.

“UROD_P06132_308_TVTLQGNLDPCALYASEEEIGQLVK (UniProt P06132)” was tested, and the “probe-labelled cysteine peptide fold change” value (10 µM) was -0.161 and the “probe-labelled cysteine peptide fold change” value (50 µM) was -0.112.

With “USP38_Q8NB14_834_LKPSGTDEASCTK (UniProt Q8NB14)” the “probe-labelled cysteine peptide fold change” value (10 µM) was 0.0943 and the “probe-labelled cysteine peptide fold change” value (50 µM) was -0.0839.

For “UBR7_Q8N806_319_LCTCQDCMK (UniProt Q8N806)”, the “probe-labelled cysteine peptide fold change” value (10 µM) was -0.0302 and the “probe-labelled cysteine peptide fold change” value (50 µM) was -0.14.

In the case of “UPP1_Q16831_17_AESHNDCPVR (UniProt Q16831)”, the “probe-labelled cysteine peptide fold change” value (10 µM) is reported as -0.161 and the “probe-labelled cysteine peptide fold change” value (50 µM) is reported as -0.221.

With “UHRF1BP1_Q6BDS2_336_LDLHICDDSQSREPGVSANR (UniProt Q6BDS2)” the “probe-labelled cysteine peptide fold change” value (10 µM) was 0.232 and the “probe-labelled cysteine peptide fold change” value (50 µM) was 0.221.

In the case of “USP24_Q9UPU5_179_CMPEAFKK (UniProt Q9UPU5)”, the “probe-labelled cysteine peptide fold change” value (10 µM) is reported as -0.126 and the “probe-labelled cysteine peptide fold change” value (50 µM) is reported as -0.146.

In the case of “UNC13D_Q70J99_992_DLHPLFDETFEFLVPAEPCRK (UniProt Q70J99)”, the “probe-labelled cysteine peptide fold change” value (10 µM) is reported as -0.138 and the “probe-labelled cysteine peptide fold change” value (50 µM) is reported as -0.107.

With “UCHL3_P15374_95_QTISNACGTIGLIHAIANNK (UniProt P15374)” the “probe-labelled cysteine peptide fold change” value (10 µM) was -0.0486 and the “probe-labelled cysteine peptide fold change” value (50 µM) was -0.313.

For “UPF1_Q92900_374_LMQGDEICLR (UniProt Q92900)”, the “probe-labelled cysteine peptide fold change” value (10 µM) was -0.0755 and the “probe-labelled cysteine peptide fold change” value (50 µM) was -0.115.

For “USP19_O94966_152_VGVGPLQLEDVDAAFTDTDCVVR (UniProt O94966)”, the “probe-labelled cysteine peptide fold change” value (10 µM) was -0.0997 and the “probe-labelled cysteine peptide fold change” value (50 µM) was 0.435.

For “UNC13D_Q70J99_255_CREDQWYPLEPR (UniProt Q70J99)”, the “probe-labelled cysteine peptide fold change” value (10 µM) was -0.0799 and the “probe-labelled cysteine peptide fold change” value (50 µM) was -0.0552.
